# Library screening results

From ChEMBL document CHEMBL3988442, “University of Dundee, Small-Polar-MMV Screening Library” (2021).

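Assay on Mycobacterium tuberculosis, filed only as a heat shock assay from Cornell; the read-out is not stated. The concentration is filed as 10 mM, unlikely as a test dose, so the dose is not known. Direction is inferred from retests: higher values go with stronger inhibition. Size under these conditions: about 69,000 compounds, about 930 of them at 50% or above in at least one test.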

Values are the deposited “Percent Effect”, in %. The record does not define 0% and 100%; most values in the screen are far below 50% and negative numbers occur (in some assays of this library far below -100). This is an unselected part of the compounds tested.

{"smiles": "O=C(Nc1cn[nH]c1)N(CCCO)C1CCc2ccccc21", "stereo": "stereo not shown", "effect": 20.22}
{"smiles": "O=C(CN(Cc1ccco1)C1CC1)Nc1ccc(Br)cn1", "effect": 13.01}
{"smiles": "O=C1COC2(CCN(c3ncccn3)CC2)CN1c1ccsc1", "effect": 8.517}
{"smiles": "COc1c(CNC2CCOc3ccccc32)c(C(C)C)nn1C", "stereo": "stereo not shown", "effect": 7.29}
{"smiles": "Cc1cccc(-c2nc(C)nn2CC(=O)NC(C)C2CC2)c1", "stereo": "stereo not shown", "effect": -21.38}
{"smiles": "CCc1nsc(N2CCCN(C(=O)c3ccsc3)CC2)n1", "effect": -22.29}
{"smiles": "CN(C)C(=O)N1CCN(C(=O)c2ccc(Cl)c(Cl)c2)C(C)(C)C1", "effect": 14.68}
{"smiles": "Cc1ccc(C(NC(=O)Cc2nc3ncccn3n2)C2CC2)cc1", "stereo": "stereo not shown", "effect": -3.516}
{"smiles": "Cc1nnc2ccc(C(=O)N3CCSC(C)(C)C3)cn12", "effect": -45.98}
{"smiles": "CCS(=O)(=O)c1ccc(N2CCC(NC(=O)NC(C)CO)CC2)cc1", "stereo": "stereo not shown", "effect": -1.008}
{"smiles": "CCN1CCN(C)C2(CCN(Cc3ccc(C)o3)CC2)C1=O.O=C(O)C(F)(F)F.O=C(O)C(F)(F)F", "effect": 4.803}
{"smiles": "O=C(NCCCSC1CCCCC1)C1NCCc2[nH]cnc21", "stereo": "stereo not shown", "effect": -15.4}
{"smiles": "O=C(NCc1cc[nH]n1)NCC(O)c1ccc(F)c(F)c1", "stereo": "stereo not shown", "effect": -7.962}
{"smiles": "CC(NC(=O)c1ccsc1)c1ccc2c(c1)NC(=O)CO2", "stereo": "stereo not shown", "effect": -18.14}
{"smiles": "CCN1CCN(c2ccccc2NC(=O)N(C)C2CCSC2)CC1", "stereo": "stereo not shown", "effect": 10.49}
{"smiles": "CSc1nccn1-c1cccc(C(=O)NCCN2CCS(=O)(=O)CC2)c1", "effect": -0.5686}
{"smiles": "O=C(c1cc2c([nH]c1=O)CCC2)N1CCCC1c1ccccn1", "stereo": "stereo not shown", "effect": 11.11}
{"smiles": "Cc1ccc(CN2CCN(Cc3ccc(N(C)C)nc3)CC2=O)cc1C", "effect": 6.149}
{"smiles": "O=C1OCCN1CCSc1nnnn1CC(F)(F)F", "effect": 5.805}
{"smiles": "CS(=O)(=O)Cc1cccc(CNS(=O)(=O)c2ccc(F)c(F)c2)c1", "effect": -6.826}
{"smiles": "Cc1ccc(CS(=O)(=O)NCc2ccco2)cc1", "effect": 5.263}
{"smiles": "CCC(Sc1ncc(CO)n1C)c1ccccc1", "stereo": "stereo not shown", "effect": 25.6}
{"smiles": "CCOCC(O)CN1CCN(C(=O)c2ccsc2)CC1", "stereo": "stereo not shown", "effect": 2.314}
{"smiles": "Cc1cnn(CC2CN(CC(=O)Nc3ccnn3C(C)C)CCO2)c1", "stereo": "stereo not shown", "effect": -11.51}
{"smiles": "Cc1ncc(COc2cccc3c2NC(=O)CO3)s1", "effect": 1.479}
{"smiles": "Cn1ncc2c(N[C@@H]3CS(=O)(=O)C[C@H]3O)nc(C(C)(C)C)nc21", "effect": 5.176}
{"smiles": "O=C(c1ccsc1)N1CCc2c(COCc3ccncc3)cncc2C1", "effect": -43.44}
{"smiles": "Cc1nc(CN2CCN(c3ncnc4ccccc34)CC2)no1", "effect": -0.3183}
{"smiles": "O=C(O)C(F)(F)F.O=C(O)C(F)(F)F.[H][C@@]12CCCO[C@]1([H])[C@H](N(C)Cc1ccco1)CN2Cc1ccc(F)cc1", "effect": -26.21}
{"smiles": "NC1(c2nc(-c3cccs3)cc(=O)[nH]2)CCCCC1", "effect": -38.51}
{"smiles": "CN(C)C(C(=O)N1CCN(S(N)(=O)=O)CC1)c1ccccc1F", "stereo": "stereo not shown", "effect": 3.372}
{"smiles": "Cc1ncc2c(n1)CCCC2NC(=O)c1ccncc1", "stereo": "stereo not shown", "effect": -6.944}
{"smiles": "Cc1nc(CN2Cc3cn(C)nc3C(COCC3CC3)C2)cs1", "stereo": "stereo not shown", "effect": -2.044}
{"smiles": "Cc1cccc(N2Cc3nc(N4CCC(C)CC4)ncc3C2=O)c1", "effect": -3.236}
{"smiles": "[H][C@]12CC[C@]([H])(CN(C3Cc4ccccc4C3)C1)N(Cc1nnc(C)o1)C2", "effect": 25.86}
{"smiles": "COc1ccc(Br)c(NC(=O)NCc2cnn(C)c2)c1", "effect": 0.6176}
{"smiles": "CCn1cc(NC(=O)C2CCN(CC(=O)NCC(C)C)CC2)cn1", "effect": -9.371}
{"smiles": "COCCCNC(=O)c1cc(C(C)C)nc(N2CCCC2)n1", "effect": -15.1}
{"smiles": "Cc1ccsc1CN(C)CCc1scnc1C", "effect": -23.42}
{"smiles": "CCOC(=O)NCCC(=O)NCc1ccnc(Oc2ccc(F)cc2)c1", "effect": -1.252}
{"smiles": "Cc1cc(C(=O)N2CCC(N3CCNC3=O)CC2)nn1C(C)(C)C", "effect": 7.281}
{"smiles": "O=C(CCO)N1CC2(CCN(c3ccccc3)C2)C1", "effect": -10.06}
{"smiles": "Cc1ccsc1CN(CCCC(F)(F)F)Cc1ccccn1", "effect": -30.64}
{"smiles": "CN(Cc1ccccc1)C(=O)CS(=O)(=O)Cc1ccc(Cl)c(Cl)c1", "effect": 47.42}
{"smiles": "CCCN(Cc1cccnc1)Cc1ccc(C2CCCCO2)o1", "stereo": "stereo not shown", "effect": -10.21}
{"smiles": "c1ccc(-n2cc(CNCC3CCCN3c3cccnn3)nn2)cc1", "stereo": "stereo not shown", "effect": -3.7}
{"smiles": "CCCC(=O)NC1CCCN(Cc2cccs2)C1", "stereo": "stereo not shown", "effect": -8.66}
{"smiles": "CCOCCNS(=O)(=O)c1cc(C)c2nc(O)cc(C)c2c1", "effect": 7.79}
{"smiles": "CC(C)CCN(C)C(=O)c1nc(S(C)(=O)=O)n2ccccc12", "effect": -0.7917}
{"smiles": "Cc1noc2ncc(C(=O)N3CCCC(n4ccnc4C)C3)cc12", "stereo": "stereo not shown", "effect": 5.65}
{"smiles": "Cc1cc(C)n(C2CCCN(C(=O)c3ccc4c(c3)COC4)C2)n1", "stereo": "stereo not shown", "effect": 13.52}
{"smiles": "COc1cc2c(nn1)CCN(Cc1nc(Cc3ccccc3)no1)C2", "effect": 22.37}
{"smiles": "CNC(=O)C1CN(c2ccnc(C)n2)CCN(C2CCOCC2)C1", "stereo": "stereo not shown", "effect": 4.935}
{"smiles": "CN1CCC2(CC1)CN(C(=O)c1ccncc1)Cc1ccccc12", "effect": -23.17}
{"smiles": "Cc1cnn(CC2CCCCN2CC(=O)Nc2c(C)n[nH]c2C)c1", "stereo": "stereo not shown", "effect": -5.895}
{"smiles": "N[C@H]1CN(C(=O)Cc2cc(F)cc(Cl)c2)C[C@@H]1C1CC1", "effect": -16.36}
{"smiles": "CCS(=O)(=O)N1CCc2cc(C(=O)NC)c(N(C)C)nc2CC1", "effect": 2.666}
{"smiles": "Cc1ccc(CN2CCN(c3cncc(N(C)C)n3)CC2=O)cc1C", "effect": 20.38}

The last 3 entries again:

| SMILES | effect |
|---|---|
| `N[C@H]1CN(C(=O)Cc2cc(F)cc(Cl)c2)C[C@@H]1C1CC1` | -16.36 |
| `CCS(=O)(=O)N1CCc2cc(C(=O)NC)c(N(C)C)nc2CC1` | 2.666 |
| `Cc1ccc(CN2CCN(c3cncc(N(C)C)n3)CC2=O)cc1C` | 20.38 |